The values below come from paper PMC9818352.

Protein sequences, listed by entry. Tags and fused reporters are not part of them. Residues count along the entry.
UniProt Q13751, residues 18-1172: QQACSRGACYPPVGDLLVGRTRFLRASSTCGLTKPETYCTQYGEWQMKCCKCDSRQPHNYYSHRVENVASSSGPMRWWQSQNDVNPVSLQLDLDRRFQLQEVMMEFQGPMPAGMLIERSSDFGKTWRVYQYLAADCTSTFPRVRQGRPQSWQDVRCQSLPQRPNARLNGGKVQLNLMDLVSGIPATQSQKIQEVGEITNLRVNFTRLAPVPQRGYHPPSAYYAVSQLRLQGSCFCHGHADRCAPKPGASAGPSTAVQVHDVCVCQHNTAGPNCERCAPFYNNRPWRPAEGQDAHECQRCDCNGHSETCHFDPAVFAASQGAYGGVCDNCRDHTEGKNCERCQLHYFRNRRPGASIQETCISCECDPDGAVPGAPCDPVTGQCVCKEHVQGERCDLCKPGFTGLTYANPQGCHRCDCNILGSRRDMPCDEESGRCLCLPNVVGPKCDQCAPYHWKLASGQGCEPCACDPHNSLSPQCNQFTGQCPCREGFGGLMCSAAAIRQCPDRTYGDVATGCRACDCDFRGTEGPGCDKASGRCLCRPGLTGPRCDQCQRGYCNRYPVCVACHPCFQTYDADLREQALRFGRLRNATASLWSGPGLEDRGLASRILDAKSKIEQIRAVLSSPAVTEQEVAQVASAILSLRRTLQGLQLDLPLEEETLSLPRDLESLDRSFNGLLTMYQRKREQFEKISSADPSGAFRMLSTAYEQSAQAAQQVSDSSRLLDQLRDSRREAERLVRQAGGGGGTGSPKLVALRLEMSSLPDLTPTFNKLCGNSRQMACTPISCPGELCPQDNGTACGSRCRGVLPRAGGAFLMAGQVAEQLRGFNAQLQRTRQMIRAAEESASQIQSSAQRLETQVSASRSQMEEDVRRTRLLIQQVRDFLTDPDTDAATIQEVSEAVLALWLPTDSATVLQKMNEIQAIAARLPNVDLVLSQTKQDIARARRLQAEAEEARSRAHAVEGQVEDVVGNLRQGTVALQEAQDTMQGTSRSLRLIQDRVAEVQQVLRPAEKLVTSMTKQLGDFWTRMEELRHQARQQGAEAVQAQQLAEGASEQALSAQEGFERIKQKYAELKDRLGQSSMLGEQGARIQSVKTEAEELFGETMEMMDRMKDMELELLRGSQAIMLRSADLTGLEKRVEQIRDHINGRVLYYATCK
UniProt Q04695: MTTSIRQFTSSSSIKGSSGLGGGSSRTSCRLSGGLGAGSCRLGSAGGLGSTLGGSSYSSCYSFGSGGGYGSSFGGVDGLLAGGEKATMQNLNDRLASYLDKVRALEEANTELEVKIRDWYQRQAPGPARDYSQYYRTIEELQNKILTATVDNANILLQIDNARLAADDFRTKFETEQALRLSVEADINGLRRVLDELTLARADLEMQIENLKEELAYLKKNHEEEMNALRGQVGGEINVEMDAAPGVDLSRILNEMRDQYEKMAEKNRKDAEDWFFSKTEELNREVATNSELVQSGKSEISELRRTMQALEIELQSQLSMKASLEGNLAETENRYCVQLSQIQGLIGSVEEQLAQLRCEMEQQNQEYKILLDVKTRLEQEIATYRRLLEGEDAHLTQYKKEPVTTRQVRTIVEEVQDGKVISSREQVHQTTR

These are yes or no findings as the source states them, for the method shown. Binding seen in cells or lysates may run through a third protein. Here binding means that the protein was enriched with, or labelled near, the bait; the list need not be complete.

This assay deals with LAMB3 over-expressed from a plasmid containing full-length LAMB3 cDNA (pLAMB3), Flag-tagged (human) (UniProt Q13751). Description: affinity purification with mass spectrometry; PANC-1 cells transfected with pLAMB3 or control plasmid pNC; anti-FLAG immunoprecipitate, gel pieces digested, LC-MS (Q Exactive, PEAKS Studio 8.5); proteins found only in the pLAMB3 group taken as hits.

Regarding “KRT17, endogenous in PANC-1 cells (from UniProt Q04695 1-432)”, the binding entry is reported as “binds”.

B1: LAMC2, endogenous in PDAC cell lines (protein, UniProt Q13753 22-1193)
chain: TSRREVCDCNGKSRQCIFDRELHRQTGNGFRCLNCNDNTDGIHCEKCKNGFYRHRERDRCLPCNCNSKGSLSARCDNSGRCSCKPGVTGARCDRCLPGFHMLTDAGCTQDQRLLDSKCDCDPAGIAGPCDAGRCVCKPAVTGERCDRCRSGYYNLDGGNPEGCTQCFCYGHSASCRSSAEYSVHKITSTFHQDVDGWKAVQRNGSPAKLQWSQRHQDVFSSAQRLDPVYFVAPAKFLGNQQVSYGQSLSFDYRVDRGGRHPSAHDVILEGAGLRITAPLMPLGKTLPCGLTKTYTFRLNEHPSNNWSPQLSYFEYRRLLRNLTALRIRATYGEYSTGYIDNVTLISARPVSGAPAPWVEQCICPVGYKGQFCQDCASGYKRDSARLGPFGTCIPCNCQGGGACDPDTGDCYSGDENPDIECADCPIGFYNDPHDPRSCKPCPCHNGFSCSVMPETEEVVCNNCPPGVTGARCELCADGYFGDPFGEHGPVRPCQPCQCNNNVDPSASGNCDRLTGRCLKCIHNTAGIYCDQCKAGYFGDPLAPNPADKCRACNCNPMGSEPVGCRSDGTCVCKPGFGGPNCEHGAFSCPACYNQVKIQMDQFMQQLQRMEALISKAQGGDGVVPDTELEGRMQQAEQALQDILRDAQISEGASRSLGLQLAKVRSQENSYQSRLDDLKMTVERVRALGSQYQNRVRDTHRLITQMQLSLAESEASLGNTNIPASDHYVGPNGFKSLAQEATRLAESHVESASNMEQLTRETEDYSKQALSLVRKALHEGVGSGSGSPDGAVVQGLVEKLEKTKSLAQQLTREATQAEIEADRSYQHSLRLLDSVSRLQGVSDQSFQVEEAKRIKQKADSLSSLVTRHMDEFKRTQKNLGNWKEEAQQLLQNGKSGREKSDQLLSRANLAKSRAQEALSMGNATFYEVESILKNLREFDLQVDNRKAEAEEAMKRLSYISQKVSDASDKTQQAERALGSAAADAQRAKNGAGEALEISSEIEQEIGSLNLEANVTADGALAMEKGLASLKSEMREVEGELERKELEFDTNMDAVQMVITEAQKVDTRAKNAGVTIQDTLNTLDGLLHLMDQPLSVDEEGLVLLEQKLSRAKTQINSQLRPMMSELEERARQQRGHLHLLETSIDGILADVKNLENIRDNLPPGCYNTQALEQQ
As to B1, the binding result is listed as “binds”.
